Source: publication PMC12741050
No constants are given. Whether binding was seen depends on the method and setting. In cells and extracts the contact can be indirect. Some results given as binding are weak or reduced against the parent protein; the word gives no strength.

Amino acid sequences for entries named in this document (tags omitted).
UniProt P19474: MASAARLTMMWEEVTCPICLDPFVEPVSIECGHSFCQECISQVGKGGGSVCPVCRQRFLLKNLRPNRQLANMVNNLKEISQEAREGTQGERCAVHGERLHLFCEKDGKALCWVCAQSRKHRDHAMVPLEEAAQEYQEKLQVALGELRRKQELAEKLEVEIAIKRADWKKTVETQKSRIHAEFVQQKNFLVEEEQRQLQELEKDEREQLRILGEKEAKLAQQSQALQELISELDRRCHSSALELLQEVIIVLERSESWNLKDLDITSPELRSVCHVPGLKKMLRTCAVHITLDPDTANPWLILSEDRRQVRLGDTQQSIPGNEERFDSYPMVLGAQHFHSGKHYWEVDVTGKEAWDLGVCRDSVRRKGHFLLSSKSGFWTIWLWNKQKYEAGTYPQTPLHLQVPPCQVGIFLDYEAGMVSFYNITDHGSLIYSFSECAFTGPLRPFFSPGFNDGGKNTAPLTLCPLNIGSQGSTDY

Target: HA-TRIM21 (human TRIM21 pcDNA3.1-HA-C) (human) (UniProt P19474)
Experiment: co-IP; CRC cell lysates; protein A/G magnetic beads with antibody or anti-Flag / anti-HA magnetic beads, overnight at 4 °C, six washes with lysis buffer, Western blot

B1: SLC25A10 in CRC cells (no SLC25A10 construct named) (protein, UniProt Q9UBX3 1-287)
chain: MAAEARVSRWYFGGLASCGAACCTHPLDLLKVHLQTQQEVKLRMTGMALRVVRTDGILALYSGLSASLCRQMTYSLTRFAIYETVRDRVAKGSQGPLPFHEKVLLGSVSGLAGGFVGTPADLVNVRMQNDVKLPQGQRRNYAHALDGLYRVAREEGLRRLFSGATMASSRGALVTVGQLSCYDQAKQLVLSTGYLSDNIFTHFVASFIAGGCATFLCQPLDVLKTRLMNSKGEYQGVFHCAVETAKLGPLAFYKGLVPAGIRLIPHTVLTFVFLEQLRKNFGIKVPS
  binding: binds
